Results are given in words; binding and its absence hold for the method and conditions named. In cells and extracts the contact can be indirect. Some entries that bind do so weakly or less than the wild type. For part of these data: Tags and fused reporters may be left off the sequences shown.
Assays:
[1] = target: T1, RNF8 (endogenous) (human (endogenous in MDA-MB-231)) (UniProt O76064); test: co-IP; endogenous; MDA-MB-231 lysate (methods: MCF7) with anti-RNF8 antibody or normal mouse IgG (control); blots with anti-RNF8 and anti-YBX1
T1 sequence: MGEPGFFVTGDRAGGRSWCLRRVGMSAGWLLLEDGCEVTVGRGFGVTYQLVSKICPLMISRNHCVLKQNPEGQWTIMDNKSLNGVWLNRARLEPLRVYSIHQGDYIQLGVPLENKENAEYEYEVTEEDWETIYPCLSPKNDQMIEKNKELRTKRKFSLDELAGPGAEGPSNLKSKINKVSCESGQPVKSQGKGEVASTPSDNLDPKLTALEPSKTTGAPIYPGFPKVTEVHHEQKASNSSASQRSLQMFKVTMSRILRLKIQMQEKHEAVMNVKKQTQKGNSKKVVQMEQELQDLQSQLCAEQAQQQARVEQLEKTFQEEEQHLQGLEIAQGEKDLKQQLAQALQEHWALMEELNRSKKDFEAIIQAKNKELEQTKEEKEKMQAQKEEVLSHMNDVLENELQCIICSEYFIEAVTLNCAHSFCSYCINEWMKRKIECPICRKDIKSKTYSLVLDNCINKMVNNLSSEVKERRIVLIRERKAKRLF

Amino acid sequences for entries named in this document (tags omitted).
UniProt P67809: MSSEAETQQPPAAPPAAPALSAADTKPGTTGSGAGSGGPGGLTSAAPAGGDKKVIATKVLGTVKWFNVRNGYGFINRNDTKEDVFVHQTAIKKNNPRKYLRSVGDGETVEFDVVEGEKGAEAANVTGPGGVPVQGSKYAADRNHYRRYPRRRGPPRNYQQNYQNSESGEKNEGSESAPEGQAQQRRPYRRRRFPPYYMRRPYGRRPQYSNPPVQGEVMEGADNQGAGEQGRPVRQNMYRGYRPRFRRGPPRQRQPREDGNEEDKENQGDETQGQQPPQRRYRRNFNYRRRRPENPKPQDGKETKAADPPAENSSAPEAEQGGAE

Flag-HA-RNF8 = target: T2, Flag-HA-RNF8 (UniProt O76064); test: co-IP; HEK-293T transfected with pcDNA3.1 (control) or pcDNA3.1-FH-RNF8, 48 h; lysate on HA-Sepharose beads; blots with anti-RNF8, anti-HA, anti-YBX1
T2 sequence: T1 sequence

FH-YBX1 = FH-YBX1 (UniProt P67809); test: co-IP; HEK-293T transfected with TG006 or TG006-RNF8 together with pcDNA3.1-FH-YBX1, 48 h; anti-Flag-M2 agarose beads; blots with anti-YBX1 and anti-RNF8

With “YBX1 (endogenous, MDA-MB-231) (from UniProt P67809 1-324)” the binding [1] was “binds”.

For “YBX1 (endogenous) (from UniProt P67809 1-324)”, the binding (Flag-HA-RNF8) was “binds”.

B1: RNF8 expressed from TG006-RNF8 (enzyme, UniProt O76064 1-485)
chain: T1 sequence
For B1, the binding (FH-YBX1) was “binds”.

— article PMC9277853
